Taken from: PubChem BioAssay AID1224826 (NIAID, 2016)

Assay: 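Regulators of Tlr4 signalling leading to Tnf-alpha expression in macrophages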 (primary screen)
Cells: RAW264.7 G9 macrophages from mouse bearing reporters for p65 (GFP) and the Tnf promoter (mCherry)
Reagents: siRNA pool against mouse genes, 100 nM
Time to read-out: 16 h of LPS stimulation, after 2 days of siRNA transfection
Challenge: bacterial lipopolysaccharide (Salmonella minnesota R595), 10 ng/ml
Detection: 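Nuclear mCherry signal of the Tnf promoter reporter measured by imaging after background removal, scaled to each plate median and turned into robust z-scores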
Reading the numbers: Tnf reporter robust z-score: higher = stronger Tnf promoter reporter signal after LPS
Active means: 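a well counts as active at a score of -1.3 or below (Tlr4 knock-down control median) or above 3 (raised signal); controls and wells holding fewer than 50 cells are excluded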
Meaning of the calls: active = Tnf reporter clearly lowered or raised; inactive = no clear change in Tnf reporter
The whole screen tested about 17,000 reagents; this is a part drawn at random. About 1,110 of them (6.6%) count as active. 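Active means lowered or raised reporter signal; replicate intensities are raw and not normalised per plate.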 Unmarked entries are inactive. The numbers tell different reagents against one gene apart. Further read-outs or replicates are left out here. No sequences are given here.

Gene	reagent	Tnf reporter robust z-score	fewer than 50 cells in well
Pacc1 (proton activated chloride channel 1)	1		fewer than 50 cells per well; well left out of calls
Tspyl1 (testis-specific protein, Y-encoded-like 1)	1		fewer than 50 cells per well; well left out of calls
Ylpm1 (YLP motif containing 1)	1	1.38	enough cells in well
Os9 (amplified in osteosarcoma)	1		fewer than 50 cells per well; well left out of calls
Trhr2 (thyrotropin releasing hormone receptor 2)	1	1.63	enough cells in well
Ercc3	1	0.09	enough cells in well
Ipo11 (importin 11)	1	-0.47	enough cells in well
Agpat2 (1-acylglycerol-3-phosphate O-acyltransferase 2)	1	0.1	enough cells in well
Colec10 (collectin sub-family member 10)	1	0.61	enough cells in well
Commd3 (COMM domain containing 3)	1	-0.6	enough cells in well
Ppat (phosphoribosyl pyrophosphate amidotransferase)	1	0.06	enough cells in well
Necap2 (NECAP endocytosis associated 2)	1		fewer than 50 cells per well; well left out of calls
Ing1 (inhibitor of growth family, member 1)	1	-0.23	enough cells in well

4 of these entries in another layout.
{"Gene":"Colec10 (collectin sub-family member 10)","reagent":1,"Tnf reporter robust z-score":0.61,"fewer than 50 cells in well":"enough cells in well"}
{"Gene":"Commd3 (COMM domain containing 3)","reagent":1,"Tnf reporter robust z-score":-0.6,"fewer than 50 cells in well":"enough cells in well"}
{"Gene":"Ppat (phosphoribosyl pyrophosphate amidotransferase)","reagent":1,"Tnf reporter robust z-score":0.06,"fewer than 50 cells in well":"enough cells in well"}
{"Gene":"Necap2 (NECAP endocytosis associated 2)","reagent":1,"fewer than 50 cells in well":"fewer than 50 cells per well; well left out of calls"}

The list goes on.
Gene	reagent	Tnf reporter robust z-score	fewer than 50 cells in well
Il21 (interleukin 21)	1		fewer than 50 cells per well; well left out of calls
Zfp157 (zinc finger protein 157)	1	3.35 (active)	enough cells in well
Or5p76 (olfactory receptor family 5 subfamily P member 76)	1	0.04	enough cells in well
Or4l15 (olfactory receptor family 4 subfamily L member 15)	1		fewer than 50 cells per well; well left out of calls
Cbx4 (chromobox 4)	1	1.19	enough cells in well
Defb12 (defensin beta 12)	1		fewer than 50 cells per well; well left out of calls
Slc29a3	1		fewer than 50 cells per well; well left out of calls
Psmb10 (proteasome (prosome, macropain) subunit, beta type 10)	1	0.34	enough cells in well
Tcerg1 (transcription elongation regulator 1 (CA150))	1	-0.04	enough cells in well
Gnl3l (guanine nucleotide binding protein nucleolar 3 like)	1	0.26	enough cells in well
Zcchc14 (zinc finger, CCHC domain containing 14)	1	0.97	enough cells in well
Desi1 (desumoylating isopeptidase 1)	1	-0.33	enough cells in well
Spata19 (spermatogenesis associated 19)	1	-0.42	enough cells in well
Snx4 (sorting nexin 4)	1	1.27	enough cells in well
Ints7 (integrator complex subunit 7)	1	0.95	enough cells in well
Vmn1r62 (vomeronasal 1 receptor 62)	1	0.03	enough cells in well
Vmn1r62 (vomeronasal 1 receptor 62)	2	-0.74	enough cells in well
Coa7 (cytochrome c oxidase assembly factor 7)	1		fewer than 50 cells per well; well left out of calls
Ddi2 (DNA-damage inducible protein 2)	1	1.15	enough cells in well
9530080O11Rik (RIKEN cDNA 9530080O11 gene)	1	2.06	enough cells in well
Or5a1 (olfactory receptor family 5 subfamily A member 1)	1		fewer than 50 cells per well; well left out of calls
Ninl (ninein-like)	1	-0.1	enough cells in well
Tspan12 (tetraspanin 12)	1		fewer than 50 cells per well; well left out of calls
Zbtb46 (zinc finger and BTB domain containing 46)	1	2.13	enough cells in well
Card14 (caspase recruitment domain family, member 14)	1	0.94	enough cells in well
Or10v5 (olfactory receptor family 10 subfamily V member 5)	1	4.73 (active)	enough cells in well
Ap4m1 (adaptor-related protein complex AP-4, mu 1)	1	0.38	enough cells in well
